# Data as given in PubChem BioAssay AID652243 (Drosophila RNAi Screening Center, 2013).
# Assay: 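Fly regulators of androgen-dependent reporter output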 (primary screen)
# System: Drosophila S2R+ cells
# Reagent: long dsRNA against Drosophila genes
# Timing: 72 h (48 h, then 24 h hormone)
# Challenge: synthetic androgen R1881 at 10 nM for 24 h
# Measured: 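Firefly light from an androgen-responsive reporter and Renilla control light per well, raw and unnormalised, for each of two replicates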
# Reading the numbers: firefly reporter light: higher = more light from androgen-responsive reporter; Renilla control light: higher = more constitutive control signal (cell number, transfection)
# Rule for the call: 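Hit when the log firefly-to-Renilla ratio dropped or increased by a fixed fold versus the mean of GFP or LacZ controls across duplicate plates; lowering cut given as 1.5 and as 3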
# Meaning of the calls: active = hit: reporter lowered or raised; inactive = no hit
# The screen tested about 24,000 reagents; this is an unselected part of those with a known target gene and a result. Of all reagents, 246 (1%) were called active. 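Plates not normalised; calls are printed but the firefly/Renilla ratio behind them is not deposited; fold cut for lowering reported inconsistently.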 The raw values are shown without normalisation. The numbers tell different reagents against one gene apart. A plus sign joins genes that one reagent is predicted to hit. Not given: the amount of reagent.
The first 7 records as a preview:
gene knocked down,reagent,"firefly reporter light, replicate 1","firefly reporter light, replicate 2","Renilla control light, replicate 1","Renilla control light, replicate 2",outcome
lncRNA:CR32660,1,6.55e5,1.06e6,1.51e6,2.13e6,inactive
lncRNA:CR32660,2,3.56e5,4.36e5,8.79e5,9.97e5,inactive
Tmem43,1,84019,1.16e5,7.41e5,1.04e6,inactive
Tmem43,2,2.79e5,2.57e5,5.10e5,4.02e5,inactive
Oatp58Dc,1,8.79e5,3.18e5,1.63e6,6.73e5,inactive
Oatp58Dc,2,4.86e5,3.37e5,9.20e5,7.89e5,inactive
Oatp58Dc,3,7.64e5,7.70e5,1.58e6,1.87e6,inactive

Results, from the first entry:
gene knocked down,reagent,"firefly reporter light, replicate 1","firefly reporter light, replicate 2","Renilla control light, replicate 1","Renilla control light, replicate 2",outcome
lncRNA:CR32660,1,6.55e5,1.06e6,1.51e6,2.13e6,inactive
lncRNA:CR32660,2,3.56e5,4.36e5,8.79e5,9.97e5,inactive
Tmem43,1,84019,1.16e5,7.41e5,1.04e6,inactive
Tmem43,2,2.79e5,2.57e5,5.10e5,4.02e5,inactive
Oatp58Dc,1,8.79e5,3.18e5,1.63e6,6.73e5,inactive
Oatp58Dc,2,4.86e5,3.37e5,9.20e5,7.89e5,inactive
Oatp58Dc,3,7.64e5,7.70e5,1.58e6,1.87e6,inactive
CG2865,1,1.10e5,1.84e5,6.93e5,6.63e5,inactive
CG2865,2,1.96e5,2.14e5,1.74e6,2.09e6,inactive
CG2865,3,5.84e5,7.65e5,8.40e5,1.18e6,inactive
CG11275,1,3.20e5,4.38e5,2.26e6,1.94e6,inactive
CG14074,1,1.65e5,1.38e5,2.03e6,2.19e6,inactive
CG14074,2,4.65e5,4.21e5,7.99e5,7.99e5,inactive
CG32512,1,3.46e5,4.11e5,1.99e6,2.27e6,inactive
CG32512,2,32454,55857,3.81e5,2.41e5,inactive
CG32512,3,7.44e5,7.45e5,1.89e6,1.47e6,inactive
trh,1,91400,1.64e5,1.76e6,2.19e6,inactive
trh,2,96938,1.31e5,1.59e6,2.02e6,inactive
trh,3,1.04e6,9.49e5,1.20e6,1.08e6,inactive
Elp2,1,9.64e5,1.45e6,1.79e6,1.99e6,inactive
Cyp4ae1,1,1.00e5,28360,4.86e5,4.33e5,inactive
Cyp4ae1,2,4.58e5,4.66e5,7.19e5,7.58e5,inactive
CCHa2,1,8.35e5,9.73e5,2.70e6,2.32e6,inactive
CG7707,1,2.92e5,2.60e5,3.50e6,2.87e6,inactive
LysD + LysB + LysC (retired record),1,1.06e5,1.41e5,2.51e5,2.53e5,inactive
CG9519,1,80786,96443,5.58e5,8.11e5,inactive
CG9519,2,5.43e5,3.89e5,1.94e6,1.42e6,inactive
Gapvd1,1,3.72e5,3.58e5,2.85e6,2.98e6,inactive
Gapvd1,2,8.46e5,8.49e5,1.19e6,1.27e6,inactive
CG11585,1,2.25e5,3.18e5,3.23e6,2.89e6,inactive
CG11585,2,2.19e5,2.24e5,7.15e5,4.69e5,inactive
ova,1,6.48e5,8.14e5,1.61e6,1.86e6,inactive
CG6421,1,53137,50148,7.62e5,7.62e5,inactive
CG6421,2,3.04e5,5.16e5,7.18e5,7.18e5,inactive
Trs20,1,2.15e5,1.47e5,1.83e6,1.45e6,inactive
scrib,1,1.02e5,79720,1.67e5,1.45e5,inactive
scrib,2,64727,78148,1.74e5,1.78e5,inactive
scrib,3,70917,49372,4.50e5,5.61e5,inactive
scrib,4,1.12e5,1.75e5,1.80e6,1.66e6,inactive
scrib,5,6.10e5,1.07e6,7.86e5,9.40e5,inactive
scrib,6,5.42e5,6.94e5,1.08e6,1.32e6,inactive
Fum4,1,6.61e5,5.91e5,2.16e6,2.06e6,inactive
Fum4,2,5.95e5,6.61e5,9.18e5,1.00e6,inactive
nord,1,2.49e5,2.71e5,1.63e6,1.77e6,inactive
nord,2,2.50e5,3.02e5,1.37e6,1.33e6,inactive
Hr51,1,42743,67317,2.39e6,2.39e6,active
Hr51,2,2.86e5,5.31e5,1.04e6,1.63e6,inactive
Sec22 + CG13358,1,29002,42853,3.42e5,2.69e5,inactive
CG30156,1,1.25e5,98247,4.25e5,5.26e5,inactive
CG1213,1,71620,36225,1.45e6,1.18e6,inactive
ref(2)P,1,1.38e5,1.69e5,9.53e5,1.36e6,inactive
fd96Cb,1,1.69e5,2.33e5,2.28e6,2.10e6,inactive
fd96Cb,2,3.57e5,3.48e5,4.46e5,4.31e5,inactive
Oatp58Db,1,2.96e5,3.28e5,1.85e6,1.83e6,inactive
Oatp58Db,2,4.52e5,4.21e5,4.26e5,4.90e5,inactive
Oatp58Db,3,6.23e5,7.62e5,1.56e6,2.11e6,inactive
CG3634,1,2.12e5,1.65e5,1.99e6,2.05e6,inactive
CG31493,1,78661,1.15e5,4.74e5,5.51e5,inactive
